Primary screen of a compound library

By UniProt entry, the sequences of proteins in these tests, tags left out. Residues count along the entry.
UniProt A4I591, 1-473: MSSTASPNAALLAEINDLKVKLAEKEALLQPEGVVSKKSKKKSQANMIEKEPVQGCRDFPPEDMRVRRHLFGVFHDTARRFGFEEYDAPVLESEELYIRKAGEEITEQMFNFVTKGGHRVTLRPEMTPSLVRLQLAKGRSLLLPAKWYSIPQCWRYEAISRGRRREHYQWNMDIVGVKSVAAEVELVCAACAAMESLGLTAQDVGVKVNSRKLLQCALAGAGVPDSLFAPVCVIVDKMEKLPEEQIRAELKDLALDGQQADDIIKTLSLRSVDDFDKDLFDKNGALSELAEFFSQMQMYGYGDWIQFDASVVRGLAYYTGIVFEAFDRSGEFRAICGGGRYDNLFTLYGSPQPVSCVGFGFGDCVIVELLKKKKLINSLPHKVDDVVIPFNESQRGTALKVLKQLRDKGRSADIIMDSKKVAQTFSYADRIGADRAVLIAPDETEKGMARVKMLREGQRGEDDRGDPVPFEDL
UniProt P9WNZ1, whole entry: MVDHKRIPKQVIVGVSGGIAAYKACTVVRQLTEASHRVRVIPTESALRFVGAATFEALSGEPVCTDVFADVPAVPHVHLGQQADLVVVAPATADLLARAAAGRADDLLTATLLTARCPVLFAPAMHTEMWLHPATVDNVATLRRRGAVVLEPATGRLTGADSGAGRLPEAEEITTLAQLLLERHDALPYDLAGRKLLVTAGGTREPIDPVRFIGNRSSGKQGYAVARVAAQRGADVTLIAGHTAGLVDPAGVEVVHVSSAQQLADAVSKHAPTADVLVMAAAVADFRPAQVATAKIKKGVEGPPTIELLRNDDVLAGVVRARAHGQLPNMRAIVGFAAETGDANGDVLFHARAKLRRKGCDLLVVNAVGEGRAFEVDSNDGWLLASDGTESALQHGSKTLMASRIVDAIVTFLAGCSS
UniProt P9WFT3, whole entry: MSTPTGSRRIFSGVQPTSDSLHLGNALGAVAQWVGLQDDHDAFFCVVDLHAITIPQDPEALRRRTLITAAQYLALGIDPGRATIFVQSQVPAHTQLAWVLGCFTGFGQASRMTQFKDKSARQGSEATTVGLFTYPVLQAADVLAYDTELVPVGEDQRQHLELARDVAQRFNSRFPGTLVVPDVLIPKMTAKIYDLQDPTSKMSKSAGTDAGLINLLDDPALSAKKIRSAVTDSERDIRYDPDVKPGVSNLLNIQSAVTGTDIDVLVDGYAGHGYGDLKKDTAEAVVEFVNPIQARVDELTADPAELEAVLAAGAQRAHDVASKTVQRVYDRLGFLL

Data taken from ChEMBL document CHEMBL3988442, “University of Dundee, Small-Polar-MMV Screening Library” (2021).

LiHisRS: 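Histidine-tRNA ligase, Leishmania infantum (UniProt A4I591). Enzyme assay of histidyl-tRNA synthetase; the read-out is not stated. Compounds at 30 µM. Direction is inferred from retests: higher values go with stronger inhibition. The assay is labelled LdHisRS but filed under L. infantum. About 69,000 compounds were tested under these conditions; 0.6% (about 410) showed 50% or more at least once.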
CoaBC: 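Coenzyme A biosynthesis protein CoaBC, Mycobacterium tuberculosis (UniProt P9WNZ1). Enzyme assay of CoaBC with a phosphate dye (Biomol Green) read at 650 nm. Concentration: 30 µM. Direction is inferred from only a few compounds that gave an IC50; most scored high, so higher reads as stronger inhibition. Most strong results did not repeat in a second test. About 67,000 compounds were tested under these conditions; 0.06% (about 40) showed 50% or more at least once.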
MtTrpRS: 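Tryptophan-tRNA ligase, Mycobacterium tuberculosis (UniProt P9WFT3). Enzyme assay of tryptophanyl-tRNA synthetase; the read-out is not stated. Concentration: 10 µM. Direction is not recorded; retested compounds ran higher, which suggests that high means inhibition. Size under these conditions: about 65,000 compounds, about 64 of them at 50% or above in at least one test.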

Results are given as percent effect. The controls that fix the scale are not given in the record; negative values are as filed. This is an unselected part of the compounds tested. A dash means the value is not listed here; it may have been measured.

Compound,LiHisRS,CoaBC,MtTrpRS
COCCNC(=O)CCC1CCN(Cc2cccc(SC)c2)CC1,-1.709,-0.8547,9.208
CN1CCN(c2ncc3c(=O)n(-c4cccc(F)c4)c(=O)[nH]c3n2)CC1,25.71,4.993,-1.377
CC(C)c1cc(C(=O)N2CCN(c3ncc4c(n3)CCOC4)CC2)on1,8.451,4.686,14.78
Cc1ccc(C)c(NC(=O)N2CCC3(CC2)NC(=O)CC3C(=O)O)c1 (centres undefined),12,-2.893,-3.802
Cc1nn(C2CCS(=O)(=O)C2)c(O)c1Cc1cccc(Cl)c1 (centres undefined),0,9.091,2.031
Cc1n[nH]c(C)c1NC(=O)NCc1cc[nH]n1,2.073,0.3822,-4.192
Cc1cc(C)c2c(N3CCN(Cc4ncccc4C)CC3)ncnc2n1,14.75,0.7673,-1.575
O=C(Cc1ccccc1F)N1CCC[C@@H]1Cn1c(=O)oc2ccccc21,4.225,0.7398,-2.902
Cc1nn(-c2ccccc2)c(C)c1CNC(=O)NC1CC1,14,-4.703,-1.314
CN(C)c1cc(C(=O)N2CCN(c3cnccn3)CC2)ccn1,25.53,1.813,2.004
CCc1cc(N2CCC(n3cc(C(=O)NC4CC4)nn3)CC2)ncn1,0,-0.6046,10.65
CC(C)c1nn(C)cc1CNCc1cccc(N(C)C)c1,8.29,-3.185,6.033
c1ccc(CCN2CCCC(c3noc(C4CC4)n3)C2)cc1 (centres undefined),11.29,1.222,-4.62
Cc1ccc(NC(C)(C)c2nnnn2-c2ccc(Cl)cc2)c(C)c1,5.357,2.89,-0.2154
Fc1ccc(Br)c(NCc2nnsc2Cl)c1,-2.703,2.724,0.1899
CCn1nc(C)c2nc(C(C)C)nc(N3CCC(O)CC3)c21,10.62,-18.03,3.441
CC(C)NC(=O)C1Cc2nc(-c3ccsc3)sc2N1CC1CC1 (centres undefined),51.39,-3.822,10.37
O=C(C(NCc1cccc(F)c1F)c1ccccc1)N1CCOCC1 (centres undefined),12.61,-0.813,3.3
Cc1cccc(-c2noc(CN3CCc4c(ncn4C4CC4)C3)n2)c1,15.87,-1.297,-6.56
O=C(NCCN1CCOCC1)c1ccc(-c2ccc(F)cc2)nc1O,2.667,-11.98,-1.064
CCc1cnc(N2CCOC(CCOC)C2)nc1 (centres undefined),10.83,-,-0.2064
CN(C)CCN(C)C[C@@H]1CN(Cc2cccc(O)c2)C[C@@H]1CO,9.167,0.3727,-8.972
Cc1nc(C)n(CC2CCCN2Cc2nc3ccccc3nc2C)n1 (centres undefined),17.57,9.257,-6.166
Cc1cc(C(=O)O)cc(S(=O)(=O)Nc2ccc3c(c2)OCO3)c1C,40.43,0.5181,-3.192
Cc1cc(C2CCCN(CCCS(=O)(=O)c3ccccc3)C2)n[nH]1 (centres undefined),-21.35,5.913,-3.383
Cc1ccc(S(=O)(=O)N2CC[C@@H]3C[C@H](NC(=O)c4[nH]ncc4Br)[C@@H]32)cc1,4.317,-5.502,0.3906
O=C1CC[C@H]2[C@H](CCN2C(=O)C2CCCO2)N1Cc1cccnc1 (some centres undefined),12.82,2.757,1.106
Cc1cc(C)nc(Nc2cncc(C3CCCN(S(C)(=O)=O)C3)n2)n1 (centres undefined),5.208,0.2451,-
Cc1nn(C)c(Cl)c1C1CCCN1C(=O)c1nccnc1N (centres undefined),16.67,4.389,-4.93
CCOc1ccc(S(=O)(=O)N(C)Cc2cnn(CC)c2)cc1,5.172,-2.079,0.5181
CCCc1nc(NCCCn2cccn2)c2c(n1)c(C)nn2CC,17.24,-3.464,-0.3886
NC(=O)CCCNC(=O)Cc1cccc(I)c1,11.4,-4.912,1.763
NCc1ccccc1Sc1ccc(O)cc1,19.54,7.83,2.202
CNC(=O)N1CCCCC1CCNS(C)(=O)=O (centres undefined),-8.163,8.037,-2.633
Cc1ccc(CN(C)C(=O)Cn2nc(-c3ccc(F)cc3)oc2=O)cc1,16,-3.659,-1.053
CCCN(Cc1cccnc1)C(=O)C1CCN(Cc2ccco2)CC1,13.68,5.128,-8.494
Cc1cc(NC(=O)NCc2nncn2C)ccc1OC(C)C,15.18,9.504,4.272
COc1ccc2c(c1)CN(CC(=O)NC1CCCC1)CC2,9.589,-1.713,-8.142
CN1[C@H](CO)C[C@H](CNCc2ccc(Cl)c(F)c2)[C@@H]1c1ccccc1F,17.65,-0.8147,-3.072
Cn1ccnc1CN1CCc2ncnc(N3CCCC3)c2CC1,13.68,-,-1.647
O=C(NCCNc1ncccn1)C1CCN(C(=O)NC2CC2)CC1,10.71,4.605,-4.036
CS(=O)(=O)c1ccc(NCCC2CCCO2)c(S(C)(=O)=O)c1 (centres undefined),21.95,4.962,2.227
Cc1csc(C2CCCCN2C(=O)CCCn2cccn2)n1 (centres undefined),0,-0.4878,-6.112
Cc1c(Cl)cccc1NC(=O)Cn1cc(C(=O)O)ccc1=O,55,9.636,-0.5942
c1cc(-c2ccc(CN3CCCC4(CCNC4)C3)s2)[nH]n1 (centres undefined),10.53,-52.07,-2.581
CSc1nc2ccsc2c(=O)n1CC(=O)N(C)c1ccccc1,14.29,11.91,-1.508

4 of the entries, repeated:

- CC(C)c1nn(C)cc1CNCc1cccc(N(C)C)c1 | LiHisRS: 8.29%; CoaBC: -3.185%; MtTrpRS: 6.033%
- Cc1ccc(CN(C)C(=O)Cn2nc(-c3ccc(F)cc3)oc2=O)cc1 | LiHisRS: 16%; CoaBC: -3.659%; MtTrpRS: -1.053%
- CC(C)c1cc(C(=O)N2CCN(c3ncc4c(n3)CCOC4)CC2)on1 | LiHisRS: 8.451%; CoaBC: 4.686%; MtTrpRS: 14.78%
- Fc1ccc(Br)c(NCc2nnsc2Cl)c1 | LiHisRS: -2.703%; CoaBC: 2.724%; MtTrpRS: 0.1899%